What was measured:
Format in all cases: cell-based
HaloTag-H2B [1] = assay: dSTORM imaging of fixed U2OS cells expressing HaloTag-H2B; conditions: fixed U2OS cell
HaloTag-tubulin = assay: dSTORM imaging of live HeLa cells expressing HaloTag-tubulin; conditions: live HeLa cell
HaloTag-H2B [2] = assay: Single-molecule imaging of labeled HaloTag-H2B (brightness, track length); conditions: ligand <50 nM

| Structure (SMILES) | mean localization error (HaloTag-H2B [1]) [nm] | median localization error (σ) (HaloTag-H2B [1]) [nm] | mean localization error (HaloTag-tubulin) [nm] | median localization error (σ) (HaloTag-tubulin; listed as JF646-HaloTag ligand) [nm] | median localization error (σ) (HaloTag-tubulin; listed as JF646 ligand) [nm] | mean track length (photostability) (HaloTag-H2B [2]) [s] |
| --- | --- | --- | --- | --- | --- | --- |
| C[Si]1(C)C2=CC(=[N+]3CCC3)C=CC2=C(c2cc(C(=O)NCCOCCOCCCCCCCl)ccc2C(=O)[O-])c2ccc(N3CCC3)cc21 [Example 35, 4-((2-(2-((6-Chlorohexyl)oxy)ethoxy)ethyl)carbamoyl)-2-(3,7-di(azetidin-1-yl)-5,5-dimethyldibenzo[b,e]silin-10-ylium-10(5H)-yl)benzoate] | 11.1 | 8.4 | 9.23 | 7.14 | 7.1 | – |
| O=C(NCCOCCOCCCCCCCl)c1ccc(C(=O)[O-])c(-c2c3ccc(=[N+]4CCC4)cc-3oc3cc(N4CCC4)ccc23)c1 [Example 21, 4-((2-(2-((6-Chlorohexyl)oxy)ethoxy)ethyl)carbamoyl)-2-(3,6-di(azetidin-1-yl)xanthylium-9-yl)benzoate] | 17.2 | 14.1 | – | – | – | 1.6 |
